Results taken from the supplement of paper PMC10849652.
The other results are listed elsewhere or left out.

By UniProt entry, the sequences of proteins in these tests, tags left out. Where a name states a change or a piece, a line headed by the entry shows the natural chain unless it says otherwise.
UniProt Q9BW92: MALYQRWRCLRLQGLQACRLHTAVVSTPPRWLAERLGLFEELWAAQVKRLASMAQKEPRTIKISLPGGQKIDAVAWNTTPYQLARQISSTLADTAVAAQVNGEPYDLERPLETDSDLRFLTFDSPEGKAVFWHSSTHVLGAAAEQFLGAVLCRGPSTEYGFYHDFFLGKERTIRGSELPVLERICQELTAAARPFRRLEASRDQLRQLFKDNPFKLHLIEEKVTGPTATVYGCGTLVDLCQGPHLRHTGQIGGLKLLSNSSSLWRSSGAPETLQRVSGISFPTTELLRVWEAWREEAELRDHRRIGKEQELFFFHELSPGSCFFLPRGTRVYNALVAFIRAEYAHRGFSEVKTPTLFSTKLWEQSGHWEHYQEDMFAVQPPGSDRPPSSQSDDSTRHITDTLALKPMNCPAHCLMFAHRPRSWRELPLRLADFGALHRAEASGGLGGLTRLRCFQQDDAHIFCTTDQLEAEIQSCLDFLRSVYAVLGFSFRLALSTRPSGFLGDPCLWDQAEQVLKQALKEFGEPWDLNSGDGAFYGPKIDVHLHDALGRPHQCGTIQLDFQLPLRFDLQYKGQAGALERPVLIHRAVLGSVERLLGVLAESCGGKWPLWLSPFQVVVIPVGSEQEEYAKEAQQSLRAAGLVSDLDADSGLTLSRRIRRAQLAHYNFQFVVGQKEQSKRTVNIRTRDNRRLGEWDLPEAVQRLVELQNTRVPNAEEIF
UniProt O95551: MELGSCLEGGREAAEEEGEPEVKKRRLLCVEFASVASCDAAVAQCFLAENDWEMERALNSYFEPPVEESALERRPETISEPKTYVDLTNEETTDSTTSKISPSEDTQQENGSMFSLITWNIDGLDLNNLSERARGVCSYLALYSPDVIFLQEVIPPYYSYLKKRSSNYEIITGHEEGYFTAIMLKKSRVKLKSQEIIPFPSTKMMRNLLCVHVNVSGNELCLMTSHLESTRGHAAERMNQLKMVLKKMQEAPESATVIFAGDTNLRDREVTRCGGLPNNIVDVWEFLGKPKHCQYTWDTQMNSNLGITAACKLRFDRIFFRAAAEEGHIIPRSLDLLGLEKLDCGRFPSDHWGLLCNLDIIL
UniProt Q99081: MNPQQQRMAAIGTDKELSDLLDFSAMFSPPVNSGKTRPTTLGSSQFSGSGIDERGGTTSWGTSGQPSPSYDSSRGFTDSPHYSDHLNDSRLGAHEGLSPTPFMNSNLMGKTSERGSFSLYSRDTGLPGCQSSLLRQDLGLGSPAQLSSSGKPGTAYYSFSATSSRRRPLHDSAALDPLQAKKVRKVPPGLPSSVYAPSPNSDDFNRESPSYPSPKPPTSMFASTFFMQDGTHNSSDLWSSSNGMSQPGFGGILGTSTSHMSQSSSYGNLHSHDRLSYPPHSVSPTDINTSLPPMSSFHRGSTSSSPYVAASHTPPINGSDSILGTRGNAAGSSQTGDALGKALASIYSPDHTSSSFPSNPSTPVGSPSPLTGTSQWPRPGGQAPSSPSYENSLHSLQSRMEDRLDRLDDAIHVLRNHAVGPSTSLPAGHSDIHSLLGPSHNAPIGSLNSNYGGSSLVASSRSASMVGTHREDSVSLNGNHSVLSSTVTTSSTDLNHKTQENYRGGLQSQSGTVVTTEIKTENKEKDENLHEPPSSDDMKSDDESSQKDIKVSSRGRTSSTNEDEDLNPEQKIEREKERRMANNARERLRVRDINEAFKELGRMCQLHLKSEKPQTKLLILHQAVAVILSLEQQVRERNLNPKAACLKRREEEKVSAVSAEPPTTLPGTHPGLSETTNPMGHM
UniProt Q0IIM8: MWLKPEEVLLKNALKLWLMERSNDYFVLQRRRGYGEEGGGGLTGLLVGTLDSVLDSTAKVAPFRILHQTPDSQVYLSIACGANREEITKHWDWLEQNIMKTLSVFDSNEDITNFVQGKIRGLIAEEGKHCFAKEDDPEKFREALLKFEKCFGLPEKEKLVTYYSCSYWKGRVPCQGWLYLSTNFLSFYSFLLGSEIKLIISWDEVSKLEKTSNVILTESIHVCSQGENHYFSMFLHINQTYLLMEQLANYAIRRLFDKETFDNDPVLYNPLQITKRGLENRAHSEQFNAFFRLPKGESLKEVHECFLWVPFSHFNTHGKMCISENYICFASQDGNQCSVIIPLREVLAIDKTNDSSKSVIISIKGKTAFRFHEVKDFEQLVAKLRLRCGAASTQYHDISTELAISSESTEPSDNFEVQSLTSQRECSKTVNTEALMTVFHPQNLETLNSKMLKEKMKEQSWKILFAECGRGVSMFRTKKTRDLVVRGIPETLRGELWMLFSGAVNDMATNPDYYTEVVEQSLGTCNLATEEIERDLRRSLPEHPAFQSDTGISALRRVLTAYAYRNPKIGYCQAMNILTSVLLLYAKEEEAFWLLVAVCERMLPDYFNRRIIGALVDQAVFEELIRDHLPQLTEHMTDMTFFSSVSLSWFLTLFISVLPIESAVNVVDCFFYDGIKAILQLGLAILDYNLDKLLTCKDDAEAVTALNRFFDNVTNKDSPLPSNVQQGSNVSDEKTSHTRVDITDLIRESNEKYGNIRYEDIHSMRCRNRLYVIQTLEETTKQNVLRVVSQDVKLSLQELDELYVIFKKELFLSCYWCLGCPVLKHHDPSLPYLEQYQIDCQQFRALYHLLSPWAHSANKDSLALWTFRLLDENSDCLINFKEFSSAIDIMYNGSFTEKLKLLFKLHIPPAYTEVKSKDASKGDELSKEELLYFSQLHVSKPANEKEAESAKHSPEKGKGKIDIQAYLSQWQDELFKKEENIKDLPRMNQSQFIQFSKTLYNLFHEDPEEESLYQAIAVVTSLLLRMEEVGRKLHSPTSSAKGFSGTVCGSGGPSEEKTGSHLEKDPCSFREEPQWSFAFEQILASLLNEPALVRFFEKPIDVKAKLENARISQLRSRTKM
UniProt Q13428: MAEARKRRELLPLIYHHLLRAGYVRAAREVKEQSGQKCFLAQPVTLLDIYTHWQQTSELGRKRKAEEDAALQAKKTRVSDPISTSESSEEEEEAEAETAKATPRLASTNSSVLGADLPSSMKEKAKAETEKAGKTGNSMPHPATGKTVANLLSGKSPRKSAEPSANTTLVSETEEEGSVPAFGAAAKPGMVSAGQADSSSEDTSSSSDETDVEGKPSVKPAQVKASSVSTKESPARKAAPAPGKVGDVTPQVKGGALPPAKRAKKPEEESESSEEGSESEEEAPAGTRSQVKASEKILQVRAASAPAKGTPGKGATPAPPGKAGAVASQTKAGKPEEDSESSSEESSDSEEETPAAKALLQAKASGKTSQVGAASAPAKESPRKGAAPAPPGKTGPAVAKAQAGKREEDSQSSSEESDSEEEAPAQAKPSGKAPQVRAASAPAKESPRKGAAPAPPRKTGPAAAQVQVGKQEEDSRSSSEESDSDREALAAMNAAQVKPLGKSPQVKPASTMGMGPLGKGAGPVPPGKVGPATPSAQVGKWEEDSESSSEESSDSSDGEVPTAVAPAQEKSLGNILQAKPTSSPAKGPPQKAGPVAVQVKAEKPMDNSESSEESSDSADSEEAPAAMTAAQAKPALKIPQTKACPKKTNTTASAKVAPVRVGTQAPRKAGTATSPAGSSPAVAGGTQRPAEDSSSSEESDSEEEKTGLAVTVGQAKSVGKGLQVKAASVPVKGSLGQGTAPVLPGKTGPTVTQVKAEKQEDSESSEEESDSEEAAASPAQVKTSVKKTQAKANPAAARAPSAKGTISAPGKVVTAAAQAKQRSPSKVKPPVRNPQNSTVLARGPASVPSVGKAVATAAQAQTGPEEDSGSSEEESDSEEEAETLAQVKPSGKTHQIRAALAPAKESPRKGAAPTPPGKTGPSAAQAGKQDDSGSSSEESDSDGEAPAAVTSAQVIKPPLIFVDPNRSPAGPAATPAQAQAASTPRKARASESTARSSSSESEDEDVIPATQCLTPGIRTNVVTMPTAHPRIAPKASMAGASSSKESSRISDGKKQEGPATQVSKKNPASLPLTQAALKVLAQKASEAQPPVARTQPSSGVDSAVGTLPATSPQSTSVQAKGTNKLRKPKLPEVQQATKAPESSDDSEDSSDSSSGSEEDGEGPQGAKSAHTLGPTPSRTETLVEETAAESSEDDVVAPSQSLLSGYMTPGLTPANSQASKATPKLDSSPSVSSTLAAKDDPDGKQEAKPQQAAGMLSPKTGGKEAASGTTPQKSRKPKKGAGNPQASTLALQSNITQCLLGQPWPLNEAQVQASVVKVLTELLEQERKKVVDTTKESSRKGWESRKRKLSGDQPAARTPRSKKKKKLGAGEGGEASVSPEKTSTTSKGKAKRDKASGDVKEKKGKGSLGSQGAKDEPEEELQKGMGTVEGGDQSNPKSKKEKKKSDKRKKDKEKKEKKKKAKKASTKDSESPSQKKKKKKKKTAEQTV
UniProt Q9BTW9: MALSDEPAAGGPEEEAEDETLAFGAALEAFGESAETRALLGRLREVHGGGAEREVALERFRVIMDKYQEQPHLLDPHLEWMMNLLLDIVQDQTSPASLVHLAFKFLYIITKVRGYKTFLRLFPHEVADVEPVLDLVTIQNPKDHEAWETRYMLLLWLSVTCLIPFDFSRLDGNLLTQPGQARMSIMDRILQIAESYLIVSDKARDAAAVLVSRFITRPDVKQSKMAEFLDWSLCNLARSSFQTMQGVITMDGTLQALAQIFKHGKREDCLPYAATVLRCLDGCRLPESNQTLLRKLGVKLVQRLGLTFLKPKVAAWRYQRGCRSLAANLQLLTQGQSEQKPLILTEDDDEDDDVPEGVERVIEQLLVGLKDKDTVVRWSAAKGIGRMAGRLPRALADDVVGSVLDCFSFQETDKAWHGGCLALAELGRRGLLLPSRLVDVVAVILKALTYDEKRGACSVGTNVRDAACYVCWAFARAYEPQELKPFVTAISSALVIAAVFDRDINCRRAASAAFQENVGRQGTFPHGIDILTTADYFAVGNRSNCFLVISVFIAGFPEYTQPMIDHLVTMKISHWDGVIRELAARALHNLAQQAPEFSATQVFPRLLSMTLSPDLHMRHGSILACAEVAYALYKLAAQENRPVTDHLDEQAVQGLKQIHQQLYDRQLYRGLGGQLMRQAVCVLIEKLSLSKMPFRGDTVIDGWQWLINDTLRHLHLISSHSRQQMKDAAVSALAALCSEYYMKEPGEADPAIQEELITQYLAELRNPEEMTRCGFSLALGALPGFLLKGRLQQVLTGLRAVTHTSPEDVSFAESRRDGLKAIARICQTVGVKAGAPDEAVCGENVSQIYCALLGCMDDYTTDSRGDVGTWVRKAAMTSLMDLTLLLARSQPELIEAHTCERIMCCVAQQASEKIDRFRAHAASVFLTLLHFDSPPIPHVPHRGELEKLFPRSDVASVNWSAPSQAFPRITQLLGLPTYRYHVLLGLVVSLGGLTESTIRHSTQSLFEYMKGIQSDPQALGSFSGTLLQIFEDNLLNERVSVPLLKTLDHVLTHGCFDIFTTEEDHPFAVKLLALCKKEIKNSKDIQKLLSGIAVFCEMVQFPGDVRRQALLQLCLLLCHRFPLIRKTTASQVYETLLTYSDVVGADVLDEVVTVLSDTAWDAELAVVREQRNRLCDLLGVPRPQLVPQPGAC
UniProt P17542, whole entry, looked up: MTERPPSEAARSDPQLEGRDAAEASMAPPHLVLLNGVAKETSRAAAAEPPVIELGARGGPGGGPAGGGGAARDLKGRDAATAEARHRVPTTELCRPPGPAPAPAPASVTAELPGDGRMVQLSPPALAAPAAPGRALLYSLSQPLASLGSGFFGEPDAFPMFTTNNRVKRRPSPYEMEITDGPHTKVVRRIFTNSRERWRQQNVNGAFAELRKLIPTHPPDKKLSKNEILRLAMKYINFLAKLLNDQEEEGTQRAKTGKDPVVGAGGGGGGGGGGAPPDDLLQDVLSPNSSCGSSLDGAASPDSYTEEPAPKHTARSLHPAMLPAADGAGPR
UniProt Q8TC07: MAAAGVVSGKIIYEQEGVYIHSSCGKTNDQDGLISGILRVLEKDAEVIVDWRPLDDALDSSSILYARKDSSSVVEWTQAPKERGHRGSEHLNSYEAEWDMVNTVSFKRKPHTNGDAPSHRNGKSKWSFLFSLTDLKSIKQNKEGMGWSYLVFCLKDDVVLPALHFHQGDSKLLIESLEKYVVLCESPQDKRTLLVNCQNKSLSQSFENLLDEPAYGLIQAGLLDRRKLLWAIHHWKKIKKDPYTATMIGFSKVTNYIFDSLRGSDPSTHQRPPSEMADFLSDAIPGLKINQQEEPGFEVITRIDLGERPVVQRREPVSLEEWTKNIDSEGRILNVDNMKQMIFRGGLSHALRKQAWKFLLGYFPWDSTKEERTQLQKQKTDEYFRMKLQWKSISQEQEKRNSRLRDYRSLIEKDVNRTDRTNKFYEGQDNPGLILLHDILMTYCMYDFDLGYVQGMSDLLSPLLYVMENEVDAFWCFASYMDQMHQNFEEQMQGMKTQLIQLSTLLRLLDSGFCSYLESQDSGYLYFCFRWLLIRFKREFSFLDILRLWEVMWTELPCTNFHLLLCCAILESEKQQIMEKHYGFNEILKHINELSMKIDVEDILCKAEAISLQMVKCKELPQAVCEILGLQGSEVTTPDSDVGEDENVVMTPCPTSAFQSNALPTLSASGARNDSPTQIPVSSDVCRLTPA

What was measured:
Assay in all cases: log2 fold change, soluble protein after heating vs DMSO (PISA); higher = thermal stabilisation; K562 lysate, 10 uM; active = over 0.2 and 3.5 SD of the protein, either way, in both replicates (recomputed)
[1] = compound: C1=CC=C(C=C1)[C@H](COC2=CC3=C(C=C2)NC(=O)N3)NC(=O)C4=CC=CN(C4=O)CC5=CC(=C(C=C5)F)F
Outline: (§1)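 K562 pellets were dounce-homogenised in PBS pH 7.4 with 1 mM MgCl2, and the crude extract at 1 mg/mL protein was treated with 10 μM compound for 30 min. Aliquots were heated for 3 min across 48°C-58°C, pooled, and brought to 0.5% NP-40 at 4°C; soluble protein was the supernatant after 21,000xg for 90 min. Soluble protein was quantified by TMTpro 16plex LC-MS/MS with channel sums equalised, and reported as log2 fold change in thermal stability against DMSO controls, with values from duplicates.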

[2] = compound: CC1=C(SC2=C1C(=N[C@H](C3=NN=C(N32)C)CC(=O)N)C4=CC=C(C=C4)Cl)C
Outline: as §1

[3] = compound: CC1=C2C(=CC=C1)N=C(N(C2=O)C3=CC=CC=C3C)CN4C=NC5=C(N=CN=C54)N
Outline: as §1

[4] = compound: Cc1sc2c(c1C)C(c1ccc(Cl)cc1)=N[C@@H](CC(=O)OC(C)(C)C)c1nnc(C)n1-2
Outline: as §1

[5] = compound: c1ccc([C@@H]2C[C@H]2NC2CCNCC2)cc1
Outline: as §1

Measured: log2 fold change

TDRKH (UniProt Q9Y2W6)
inactive: [1] -0.02 | [2] -0.028 | [3] 0.1 | [4] 0.005 | [5] -0.053

TARS2 (UniProt Q9BW92)
inactive: [1] -0.062 | [2] -0.059 | [3] 0.012 | [4] 0.014 | [5] 0.025

TBC1D22B (UniProt Q9NU19)
inactive: [1] 0.027 | [2] 0.017 | [3] 0.035 | [4] 0.013 | [5] 0.03

TDP2 isoform 2 (UniProt O95551)
inactive: [1] 0.022 | [2] 0.042 | [3] -0.006 | [4] 0.008 | [5] 0.028

TCF12 isoform 3 (UniProt Q99081)
inactive: [1] 0.062 | [2] -0.072 | [3] 0.014 | [4] -0.048 | [5] -0.046

TAF9 (UniProt Q16594)
inactive: [1] 0.04 | [2] -0.004 | [3] 0.05 | [4] 0.019 | [5] 0.021

TFIP11 (UniProt Q9UBB9)
inactive: [1] -0.033 | [2] -0.022 | [3] 0.007 | [4] -0.002 | [5] 0.044

TANGO6 (UniProt Q9C0B7)
inactive: [1] 0.05 | [2] -0.021 | [3] -0.036 | [4] 0.043 | [5] -0.009

TAMM41 isoform 3 (UniProt Q96BW9)
inactive: [1] -0.12 | [2] -0.02 | [3] -0.079 | [4] -0.011 | [5] 0.023

TCIRG1 (UniProt Q13488)
inactive: [1] 0.066 | [2] -0.022 | [3] -0.1 | [4] 0.065 | [5] 0.004

TCEAL4 isoform 2 (UniProt Q96EI5)
inactive: [1] 0.165 | [2] -0.021 | [3] 0.025 | [4] -0.093 | [5] -0.148

TAGLN2 isoform 2 (UniProt P37802)
inactive: [1] 0.042 | [2] -0.061 | [3] -0.003 | [4] -0.002 | [5] 0.011

TERF2 (UniProt Q15554)
inactive: [1] 0.017 | [2] 0.002 | [3] 0.038 | [4] -0.008 | [5] 0.017

TFR2 (UniProt Q9UP52)
inactive: [1] 0.055 | [2] 0.015 | [3] 0.019 | [4] -0.055 | [5] -0.023

TAPT1 (UniProt Q6NXT6)
inactive: [1] -0.004 | [2] -0.023 | [3] 0.092 | [4] -0.07 | [5] -0.128

TEX264 (UniProt Q9Y6I9)
inactive: [1] -0.08 | [2] -0.085 | [3] 0.043 | [4] 0.087 | [5] 0.059

TATDN2 (UniProt Q93075)
inactive: [1] -0.021 | [2] -0.092 | [3] -0.039 | [4] 0.08 | [5] -0.05

TBC1D8B (UniProt Q0IIM8)
inactive: [1] -0.086 | [2] -0.078 | [3] -0.038 | [4] -0.013 | [5] -0.101

TCF3 (UniProt P15923)
inactive: [1] -0.029 | [2] 0.006 | [3] -0.004 | [4] -0.032 | [5] -0.08

TAF7 (UniProt Q15545)
inactive: [1] 0.006 | [2] 0.02 | [3] 0.032 | [4] 0 | [5] 0.004

TEAD1 (UniProt P28347)
inactive: [1] -0.088 | [2] -0.039 | [3] -0.005 | [4] -0.134 | [5] 0.045

TBL1X (UniProt O60907)
inactive: [1] 0.024 | [2] 0.001 | [3] -0.002 | [4] 0.044 | [5] -0.018

TCAF2 (UniProt A6NFQ2)
inactive: [1] 0.159 | [2] 0.091 | [3] 0.027 | [4] 0.007 | [5] 0.042

TCERG1 (UniProt O14776)
inactive: [1] -0.043 | [2] 0.039 | [3] 0.005 | [4] 0.033 | [5] 0.019

TBCB (UniProt Q99426)
inactive: [1] 0.011 | [2] -0.043 | [3] 0.007 | [4] -0.071 | [5] -0.035

15 neighbouring entries from above:
TANGO6 (UniProt Q9C0B7)
inactive: [1] 0.05 | [2] -0.021 | [3] -0.036 | [4] 0.043 | [5] -0.009

TAMM41 isoform 3 (UniProt Q96BW9)
inactive: [1] -0.12 | [2] -0.02 | [3] -0.079 | [4] -0.011 | [5] 0.023

TCIRG1 (UniProt Q13488)
inactive: [1] 0.066 | [2] -0.022 | [3] -0.1 | [4] 0.065 | [5] 0.004

TCEAL4 isoform 2 (UniProt Q96EI5)
inactive: [1] 0.165 | [2] -0.021 | [3] 0.025 | [4] -0.093 | [5] -0.148

TAGLN2 isoform 2 (UniProt P37802)
inactive: [1] 0.042 | [2] -0.061 | [3] -0.003 | [4] -0.002 | [5] 0.011

TERF2 (UniProt Q15554)
inactive: [1] 0.017 | [2] 0.002 | [3] 0.038 | [4] -0.008 | [5] 0.017

TFR2 (UniProt Q9UP52)
inactive: [1] 0.055 | [2] 0.015 | [3] 0.019 | [4] -0.055 | [5] -0.023

TAPT1 (UniProt Q6NXT6)
inactive: [1] -0.004 | [2] -0.023 | [3] 0.092 | [4] -0.07 | [5] -0.128

TEX264 (UniProt Q9Y6I9)
inactive: [1] -0.08 | [2] -0.085 | [3] 0.043 | [4] 0.087 | [5] 0.059

TATDN2 (UniProt Q93075)
inactive: [1] -0.021 | [2] -0.092 | [3] -0.039 | [4] 0.08 | [5] -0.05

TBC1D8B (UniProt Q0IIM8)
inactive: [1] -0.086 | [2] -0.078 | [3] -0.038 | [4] -0.013 | [5] -0.101

TCF3 (UniProt P15923)
inactive: [1] -0.029 | [2] 0.006 | [3] -0.004 | [4] -0.032 | [5] -0.08

TAF7 (UniProt Q15545)
inactive: [1] 0.006 | [2] 0.02 | [3] 0.032 | [4] 0 | [5] 0.004

TEAD1 (UniProt P28347)
inactive: [1] -0.088 | [2] -0.039 | [3] -0.005 | [4] -0.134 | [5] 0.045

TBL1X (UniProt O60907)
inactive: [1] 0.024 | [2] 0.001 | [3] -0.002 | [4] 0.044 | [5] -0.018

(cont.)

TATDN3 isoform 3 (UniProt Q17R31)
inactive: [1] 0.008 | [2] 0.017 | [3] 0.013 | [4] -0.132 | [5] -0.084

TFPI (UniProt P10646)
inactive: [1] 0.053 | [2] -0.116 | [3] -0.16 | [5] 0.269

TCOF1 isoform 4 (UniProt Q13428)
inactive: [1] 0.014 | [2] 0.013 | [3] -0.003 | [4] -0.014 | [5] -0.043

TASOR2 (UniProt Q5VWN6)
inactive: [1] 0.218 | [2] -0.06 | [4] -0.092

TBC1D10B (UniProt Q4KMP7)
inactive: [1] 0.075 | [2] 0.03 | [3] -0.016 | [4] 0.014 | [5] -0.035

TBCC (UniProt Q15814)
inactive: [1] 0.001 | [2] 0.034 | [3] 0.008 | [4] 0.017 | [5] -0.012

TBCD (UniProt Q9BTW9)
inactive: [1] -0.028 | [2] 0.025 | [3] 0.034 | [4] -0.013 | [5] -0.005

TFAM (UniProt Q00059)
inactive: [1] 0.003 | [2] 0.041 | [3] -0.046 | [4] 0.024 | [5] 0.037

TAL1 (UniProt P17542)
inactive: [1] -0.02 | [2] 0.047 | [3] 0.002 | [4] -0.008 | [5] -0.026

TBL2 (UniProt Q9Y4P3)
inactive: [1] 0.01 | [2] 0.057 | [3] 0.033 | [4] 0.039 | [5] 0.071

TENT5C (UniProt Q5VWP2)
inactive: [1] -0.06 | [2] 0.002 | [3] 0.073 | [5] -0.037

TALDO1 (UniProt P37837)
inactive: [1] 0.002 | [2] 0.012 | [3] -0.024 | [4] 0.037 | [5] 0.037

TBC1D9B isoform 2 (UniProt Q66K14)
inactive: [1] 0.004 | [2] 0.026 | [3] 0.041 | [4] -0.009 | [5] -0.081

TFAP4 (UniProt Q01664)
inactive: [1] 0.018 | [2] -0.069 | [3] 0.012 | [5] 0.081

TBC1D15 isoform 3 (UniProt Q8TC07)
inactive: [1] -0.007 | [2] -0.01 | [3] 0.003 | [4] 0.04 | [5] 0.052

TARBP1 (UniProt Q13395)
inactive: [1] -0.108 | [2] -0.025 | [3] 0.112 | [4] 0.016 | [5] 0.053

TASP1 (UniProt Q9H6P5)
inactive: [1] 0.027 | [2] 0.205 | [4] 0.059

TEPSIN, A0A1B0GV70
inactive: [1] -0.009 | [2] 0.04 | [3] 0.058 | [4] -0.076 | [5] -0.028

TBCE (UniProt Q15813)
inactive: [1] 0.008 | [2] -0.027 | [3] 0.014 | [4] 0.008 | [5] 0.015

TFB1M (UniProt Q8WVM0)
inactive: [1] 0.043 | [2] 0.055 | [3] 0.065 | [4] -0.006 | [5] -0.025

TAF9B (UniProt Q9HBM6)
inactive: [1] -0.22 | [2] -0.003 | [3] 0.144 | [4] 0.082 | [5] -0.092

TAX1BP1 (UniProt Q86VP1)
inactive: [1] -0.011 | [2] 0.005 | [3] -0.032 | [4] 0.01 | [5] -0.002

TARBP2 (UniProt Q15633)
inactive: [1] 0.001 | [2] -0.003 | [3] -0.003 | [4] -0.019 | [5] 0.051

TAOK3 (UniProt Q9H2K8)
inactive: [1] -0.006 | [2] -0.013 | [3] -0.001 | [4] -0.057 | [5] 0.092

TFCP2 (UniProt Q12800)
inactive: [1] 0.044 | [2] -0.013 | [3] 0.004 | [4] -0.013 | [5] -0.103

TFPT (UniProt P0C1Z6)
inactive: [1] -0.176 | [2] -0.078 | [4] -0.052

TARS1 (UniProt P26639)
inactive: [1] -0.003 | [2] -0.003 | [3] 0.002 | [4] 0.038 | [5] 0.019

TET2 (UniProt Q6N021)
inactive: [1] 0.017 | [2] 0.034 | [4] -0.024

TCP1 (UniProt P17987)
inactive: [1] -0.007 | [2] 0.009 | [3] -0.011 | [4] 0.007 | [5] -0.009
